In article PMC5996148 one finds binding signal data, which are given here for one sequence.

What all share (assay): protein microarray (ProtoArray v5.0), streptavidin-Alexa Fluor 647
Holding throughout (settings): 3'-biotin; 20 mM Tris (pH 7.5), 5 mM MgCl2, 100 mM KCl, 0.1% Tween-20, A/T-rich and random oligonucleotide blockers; temperature not stated; high values mean tight binding

For test [1], the system named is KRT33B (human).
Test [2] has as its system KRT8 (human).
The subject of test [3] is Kallikrein-1 (human).
For test [4], the system named is Kelch-like ECH-associated protein 1 (human).
Test [5] has as its system Keratinocyte growth factor (human).
For test [6], the system named is Kinesin light chain 1 (human).
The test system of test [7] is L-asparaginase (human).
Test [8] has as its system LACTB2 (human).
Test [9] relates to LAIR2 (human).
Test [10] deals with LARP1 (UniProt Q6PKG0).
The target of test [11] is T1, LARP7 (UniProt Q4G0J3).
T1 sequence: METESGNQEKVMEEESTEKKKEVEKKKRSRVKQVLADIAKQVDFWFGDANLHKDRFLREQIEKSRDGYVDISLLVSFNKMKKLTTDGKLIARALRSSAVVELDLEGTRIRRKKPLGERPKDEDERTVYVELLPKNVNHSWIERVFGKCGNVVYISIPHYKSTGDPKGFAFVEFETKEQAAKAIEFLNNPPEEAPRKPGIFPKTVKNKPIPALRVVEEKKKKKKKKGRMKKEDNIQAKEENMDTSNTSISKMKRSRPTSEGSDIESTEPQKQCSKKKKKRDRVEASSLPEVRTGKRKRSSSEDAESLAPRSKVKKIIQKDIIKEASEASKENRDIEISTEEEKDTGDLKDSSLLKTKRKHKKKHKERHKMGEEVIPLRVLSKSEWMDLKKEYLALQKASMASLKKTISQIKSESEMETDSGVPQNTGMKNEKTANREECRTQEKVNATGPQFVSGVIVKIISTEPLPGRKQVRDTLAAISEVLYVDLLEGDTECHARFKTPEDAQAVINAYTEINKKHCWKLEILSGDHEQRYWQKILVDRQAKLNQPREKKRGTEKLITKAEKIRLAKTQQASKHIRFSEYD

In test [12] the test system is LAS1L (human).
The test system of test [13] is LCN1 (human).
The test system of test [14] is LCP1 (human).
Test [15] relates to LDB2 (human).
In test [16] the test system is LETM2 (human).
Test [17] deals with LGALS1 (human).
The test system of test [18] is LGALS3 (human).
Test [19] concerns LILRB1 (human).
Test [20] has as its system LIMD1 (human).

Some of the results follow. For some assays here: The exact form of the protein is not confirmed.

As to “GGTGACAGGGGTATGGGGAGGGG [G4-2 biotinylated (Ct1)]”, the binding signal in test [1] is -0.38 z-score; in test [2], -0.384 z-score; in test [3], -0.365 z-score; in test [4], -0.388 z-score; in test [5], -0.39 z-score; in test [6], -0.389 z-score. Further, the binding signal in test [7] is -0.373 z-score; in test [8], -0.392 z-score; in [9], -0.379 z-score; in test [10] it was 5.37 z-score; in test [11], 4.49 z-score; in test [12], -0.369 z-score. The binding signal was -0.394 z-score in test [13]; -0.379 z-score in test [14]; -0.411 z-score in test [15]; -0.388 z-score in test [16]; -0.372 z-score in test [17]; -0.384 z-score in test [18]. The binding signal in test [19] was -0.378 z-score; in test [20], -0.396 z-score.
